Measurements taken from patent publication US20240409658A1 (Seagen, published 2024).
Results are given in words; binding and its absence hold for the method and conditions named. Some binding calls cover weakened binding; strength is not graded here.

Legend:
[1] = target: T1, human CD228 on the cell surface (RPMI-7951 cells stably expressing human CD228; A375 cells) (human) (UniProt P08582); assay: saturation binding by flow cytometry, RPMI-7951 cells stably expressing human CD228; PE anti-human IgG secondary
T1 sequence (looked up): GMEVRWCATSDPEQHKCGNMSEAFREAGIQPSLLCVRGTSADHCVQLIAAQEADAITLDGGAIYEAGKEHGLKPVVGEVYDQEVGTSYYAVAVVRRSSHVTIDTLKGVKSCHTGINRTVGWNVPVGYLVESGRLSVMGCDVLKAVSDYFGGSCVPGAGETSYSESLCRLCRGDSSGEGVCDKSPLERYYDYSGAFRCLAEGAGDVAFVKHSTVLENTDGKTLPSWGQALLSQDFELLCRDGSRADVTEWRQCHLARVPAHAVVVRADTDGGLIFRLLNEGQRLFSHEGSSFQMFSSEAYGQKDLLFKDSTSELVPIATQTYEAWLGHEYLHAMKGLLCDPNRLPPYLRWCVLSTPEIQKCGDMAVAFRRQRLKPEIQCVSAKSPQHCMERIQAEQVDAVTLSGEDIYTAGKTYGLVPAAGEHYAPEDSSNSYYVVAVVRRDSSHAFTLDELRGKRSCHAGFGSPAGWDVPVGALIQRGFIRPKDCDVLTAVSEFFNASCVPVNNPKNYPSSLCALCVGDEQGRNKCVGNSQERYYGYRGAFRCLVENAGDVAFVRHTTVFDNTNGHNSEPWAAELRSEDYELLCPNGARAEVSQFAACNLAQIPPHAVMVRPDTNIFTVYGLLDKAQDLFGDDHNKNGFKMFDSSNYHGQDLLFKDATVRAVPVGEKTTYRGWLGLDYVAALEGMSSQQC

[2] = target: T1, human CD228 on the cell surface (RPMI-7951 cells stably expressing human CD228; A375 cells) (human); assay: competition flow cytometry, RPMI-7951 cells stably expressing human CD228; competitor 5 nM AF647-labeled mL49; unlabeled antibody 0.06-1000 nM

binding [1]: binds | binding [2]: binds
B1: cL49ec (chimeric L49 with an S239C mutation) (antibody, V domains shown)
VH: EVQLQESGPSLVKPSQTLSLTCSVTGDSITSGYWNWIRKFPGNKLEYMGYISDSGITYYNPSLKSRISITRDTSKNQYYLQLNFVTAEDTATYNCARRTLATYYAMDYWGQGTSVTVSS
VL: DFVMTQTPLSLPVSLGDQASISCRASQSLVHSNGNTYLHWYLQKPGQSPKLLIYRVSNRFSGVPDRFSGSGSGTDFTLKISRVEAEDLGVYFCSQSTHVPPTFGGGTKLEIK
notes: Human constant regions with S239C; also called chimeric LA9
